Measured values published in PubChem BioAssay AID1487 (National Center for Advancing Translational Sciences (NCATS), 2009).
Values joined by “and” are separate entries in the source; they are usually repeats but may differ in a detail not shown here. Equal entries are not always repeated. Some of the results follow. The main result of the screen is listed elsewhere. These columns were measured beside it and carry no call. Compounds called inactive in the main read-out are mostly missing here. Words in brackets tell the shape of the fitted curve; partial curves, single points and poor fits give uncertain potencies.

Assay: qHTS Assay for Modulators of Lamin A Splicing
Settings: HeLa LMNA splicing GFP/RFP minigene ratio, 48 h
Method in brief: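 Read-out is the ratio of GFP to DsRed2 object intensity, acquired by 488 nm laser-scanning cytometry on HeLa lamin A-EGFP minigene reporter cells. Compound incubation 48 hrs at 37 °C in Opti-MEM with 2% FBS; DMSO 0.5% final.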

[1] = measured here: RFP viability control channel
[2] = measured here: GFP splicing reporter channel

Row | SMILES | AC50 [1] | AC50 [2]
1 | COC(=O)c1c(NC(=O)c2ccc(S(=O)(=O)N(C)C3CCCCC3)cc2)sc2c1CCN(C)C2 | 11.2 µM [falling, single point] | –
2 | O=c1cc(NS(=O)(=O)c2ccccc2)nc(SCc2ccc(Cl)cc2)[nH]1 | 35.5 µM [rising, single point] | –
3 | COc1ccc(CNCC(O)(c2ccc(Cl)cc2)c2ccc(Cl)cc2)cc1 | 22.4 µM [falling, partial curve] | 12.6 µM [falling, partial curve]
4 | COc1c(C)cc(C(=O)C2CCCN(C(=O)c3ccoc3)C2)cc1C (configuration not stated) | – | 10 µM [falling, partial curve]
5 | CC(=O)Nc1ccc(NC(=O)c2cc(-c3ccc4c(c3)OCCO4)on2)cc1 | 0.316 µM [falling, full curve, poor fit] | –
6 | O=C(c1ccccc1)[C@@H]1[C@@H](C(=O)c2ccc(F)cc2)[C@@]2(C(=O)Nc3ccccc32)[C@H]2c3ccccc3C=CN12 | 22.4 µM [rising, single point] | –
7 | CC1CNCCN1S(=O)(=O)c1cccc2cnccc12 (configuration not stated) | 25.1 µM [falling, partial curve] | 35.5 µM [falling, single point]
8 | COC(=O)CNC(c1ccccc1)c1cc(Br)ccc1NS(=O)(=O)c1ccc(C)cc1 (configuration not stated) | 35.5 µM [rising, single point] | –
9 | COC(=O)CCC(=O)OC1(C)C(=O)C=C2C=C(C3CC3)N(Cc3ccccc3)C=C2C1=O (configuration not stated) | – | 0.0316 µM [rising, partial curve]
10 | COc1ccc(-c2nc(SCC(=O)NCCc3ccccc3)n[nH]2)cc1 | 0.0224 µM [falling, full curve, poor fit] | –
11 | CCOC(=O)CN(Cc1sccc1C)C(=O)Nc1ccc(OC)cc1OC | 20 µM [rising, single point] | 25.1 µM [rising, single point]
12 | CC(C)(C)c1ccc([C@@H](O)CCCN2CCC(C(O)(c3ccccc3)c3ccccc3)CC2)cc1 | 8.91 µM [falling, single point] | 11.2 µM [falling, partial curve]
13 | CN(C)S(=O)(=O)c1cccc(NC(=O)Cc2ccc(Cl)cc2)c1 | 15.8 µM [rising, partial curve] | 8.91 µM [rising, partial curve]
14 | Cc1ccc2onc(CC(=O)N3CCN(c4ccccc4)CC3)c2c1 | 0.0316 µM [falling, full curve, poor fit] | 35.5 µM [falling, single point]
15 | COc1ccc(NS(=O)(=O)c2ccc(S(=O)(=O)N3CCCC3)cc2)cc1Cl | 15.8 µM [rising, single point] | –
16 | Cc1cc(-c2ccccc2)nc(N(C)NC(=O)C2CC2)c1S(C)(=O)=O | 3.55 µM [rising, full curve, poor fit] | 6.31 µM [rising, partial curve]
17 | C=CCNc1ncnc2c1[nH]c1ccc(C)cc12 | 15.8 µM [rising, partial curve] | 12.6 µM [rising, partial curve]

An excerpt of these results, as tab-separated lines.
Row	SMILES	AC50 [1]	AC50 [2]
3	COc1ccc(CNCC(O)(c2ccc(Cl)cc2)c2ccc(Cl)cc2)cc1	22.4 µM [falling, partial curve]	12.6 µM [falling, partial curve]
4	COc1c(C)cc(C(=O)C2CCCN(C(=O)c3ccoc3)C2)cc1C (configuration not stated)	–	10 µM [falling, partial curve]

Continued:

Row | SMILES | AC50 [1] | AC50 [2]
18 | CCCC(=O)Nc1ccc2nc(SCC(=O)Nc3ccc(N4CCOCC4)c(Cl)c3)sc2c1 | 0.00447 µM [falling, full curve, poor fit] | 0.00501 µM [falling, full curve, poor fit]
19 | O=C(CSc1cn(CCNC(=O)c2cccs2)c2ccccc12)NC1CCCCC1 | 7.94 µM [rising, partial curve, poor fit] | –
20 | O=C(NCCc1ccccc1)c1ccc(CS(=O)(=O)c2ccc(Cl)cc2)o1 | 6.31 µM [rising, single point] and 20 nM [falling, full curve] | 0.794 µM [falling, full curve]
21 | CCn1c(=S)sc2c(=O)n(-c3ccccc3)c(SC)nc21 | 14.1 µM [rising, partial curve] | –
22 | N#Cc1c(NC(=S)NC(=O)Cc2cccs2)sc2c1CCCCC2 | 31.6 µM [rising, single point] | 17.8 µM [rising, single point]
23 | CCOCCCNC(=O)c1cc2c(=O)n3cccc(C)c3nc2n1C | 0.0447 µM [rising, full curve, poor fit] | –
24 | O=C(CSc1nc(-c2ccco2)cc(C(F)(F)F)n1)N1CCN(c2ccc(Cl)cc2)CC1 | 22.4 µM [rising, partial curve] | –
25 | COc1ccc(-c2nc3cnc(N(C)C)nc3n(Cc3cccs3)c2=O)cc1 | 35.5 µM [falling, single point] | –
26 | CN(C)c1cccc2c(C=C(C#N)C#N)ccc(N(C)C)c12 | 2.51 µM [rising, full curve] | 2.51 µM [rising, full curve, poor fit]
27 | CCOC(=O)C1=C[C@]2(CC)CCCN3CCc4c(n1c1ccccc41)[C@@H]32 | 11.2 µM [rising, single point] | –
28 | CC(=O)N1CCN(Cc2nc3cc(NC(=O)c4ccc(Cl)cc4)ccc3n2C)CC1 | 14.1 µM [rising, single point] | 15.8 µM [rising, single point]
29 | CCOC(=O)CCc1nc2ccccc2[nH]c1=O | 0.00708 µM [rising, full curve, poor fit] | –
30 | CCOc1ccccc1N(CC(=O)Nc1ccc(S(=O)(=O)N2CCOCC2)cc1)S(=O)(=O)c1ccc(Cl)cc1 | – | 2.82 µM [rising, single point]
31 | COC(=O)Nc1ccc(S(=O)(=O)Nc2ccc(O)cc2)cc1 | 28.2 µM [rising, single point] | –
32 | Cc1[nH]n(-c2ncc(-c3ccccc3)s2)c(=O)c1C(c1ccc(Br)cc1)C(C#N)C#N (configuration not stated) | 20 µM [rising, partial curve] | –
33 | COc1ccc(CN2CCN(c3ccccn3)CC2)cc1OCc1ccccc1 | 17.8 µM [rising, single point] | –
34 | CCN1CCN(c2cc(C)c3cc(NC(=S)NCCCN4CCc5ccccc5C4)ccc3n2)CC1 | 17.8 µM [rising, partial curve, poor fit] | –
